No constants are given. Whether binding was seen depends on the method and setting. In cells and extracts the contact can be indirect. For part of these data: A result given as binding can be weak or reduced; the word gives no strength. Tags and fused reporters may be left off the sequences shown.
How the values were obtained:
Test in all cases: pull-down; GST-tagged LY6K constructs co-expressed with flag-tagged TbR1 in 293T cells; lysates in RIPA buffer; Glutathione Sepharose 4B beads; Western blot with Flag and GST antibodies
[1] = molecular target: GST-tagged LY6K residues 18–58 (human)
[2] = molecular target: GST-tagged LY6K fragment 98–138 (human)
[3] = molecular target: GST-tagged LY6K fragment 58–98 (human)

B1: Flag-tagged TbR1 (receptor, UniProt P36897 34-503)
chain: LQCFCHLCTKDNFTCVTDGLCFVSVTETTDKVIHNSMCIAEIDLIPRDRPFVCAPSSKTGSVTTTYCCNQDHCNKIELPTTVKSSPGLGPVELAAVIAGPVCFVCISLMLMVYICHNRTVIHHRVPNEEDPSLDRPFISEGTTLKDLIYDMTTSGSGSGLPLLVQRTIARTIVLQESIGKGRFGEVWRGKWRGEEVAVKIFSSREERSWFREAEIYQTVMLRHENILGFIAADNKDNGTWTQLWLVSDYHEHGSLFDYLNRYTVTVEGMIKLALSTASGLAHLHMEIVGTQGKPAIAHRDLKSKNILVKKNGTCCIADLGLAVRHDSATDTIDIAPNHRVGTKRYMAPEVLDDSINMKHFESFKRADIYAMGLVFWEIARRCSIGGIHEDYQLPYYDLVPSDPSVEEMRKVVCEQKLRPNIPNRWQSCEALRVMAKIMRECWYANGAARLTALRIKKTLSQLSQQEGIKM
**Q.** Which binding [1] does the source give for B1 here?
**A.** no binding

**Q.** And the binding [2]?
**A.** binds

**Q.** What about the binding [3] of the same binder?
**A.** binds
